The record followed here is paper PMC4398349.

Amino acid sequences for entries named in this document (tags omitted). Residues count along the entry.
UniProt Q59RR0, residues 55-783: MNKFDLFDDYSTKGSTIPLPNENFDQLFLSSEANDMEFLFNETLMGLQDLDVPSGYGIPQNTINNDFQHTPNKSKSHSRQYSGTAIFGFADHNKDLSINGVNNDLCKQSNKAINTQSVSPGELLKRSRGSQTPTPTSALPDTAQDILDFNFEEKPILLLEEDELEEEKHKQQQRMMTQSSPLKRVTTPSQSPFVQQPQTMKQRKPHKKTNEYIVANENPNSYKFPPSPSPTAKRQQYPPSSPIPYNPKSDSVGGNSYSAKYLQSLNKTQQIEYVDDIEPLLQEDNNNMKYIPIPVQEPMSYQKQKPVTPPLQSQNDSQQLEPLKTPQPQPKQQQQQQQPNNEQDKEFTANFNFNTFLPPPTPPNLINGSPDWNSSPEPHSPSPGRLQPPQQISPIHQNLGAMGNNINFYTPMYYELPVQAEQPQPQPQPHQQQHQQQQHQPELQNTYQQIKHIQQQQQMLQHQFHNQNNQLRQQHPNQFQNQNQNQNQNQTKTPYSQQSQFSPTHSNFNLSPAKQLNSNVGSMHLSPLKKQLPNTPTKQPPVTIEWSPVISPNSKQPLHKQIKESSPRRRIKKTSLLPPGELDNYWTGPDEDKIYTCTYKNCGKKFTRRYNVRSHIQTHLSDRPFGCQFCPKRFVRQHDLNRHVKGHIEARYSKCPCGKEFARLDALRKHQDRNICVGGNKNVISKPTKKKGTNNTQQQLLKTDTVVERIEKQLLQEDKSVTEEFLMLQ
UniProt Q5AP53: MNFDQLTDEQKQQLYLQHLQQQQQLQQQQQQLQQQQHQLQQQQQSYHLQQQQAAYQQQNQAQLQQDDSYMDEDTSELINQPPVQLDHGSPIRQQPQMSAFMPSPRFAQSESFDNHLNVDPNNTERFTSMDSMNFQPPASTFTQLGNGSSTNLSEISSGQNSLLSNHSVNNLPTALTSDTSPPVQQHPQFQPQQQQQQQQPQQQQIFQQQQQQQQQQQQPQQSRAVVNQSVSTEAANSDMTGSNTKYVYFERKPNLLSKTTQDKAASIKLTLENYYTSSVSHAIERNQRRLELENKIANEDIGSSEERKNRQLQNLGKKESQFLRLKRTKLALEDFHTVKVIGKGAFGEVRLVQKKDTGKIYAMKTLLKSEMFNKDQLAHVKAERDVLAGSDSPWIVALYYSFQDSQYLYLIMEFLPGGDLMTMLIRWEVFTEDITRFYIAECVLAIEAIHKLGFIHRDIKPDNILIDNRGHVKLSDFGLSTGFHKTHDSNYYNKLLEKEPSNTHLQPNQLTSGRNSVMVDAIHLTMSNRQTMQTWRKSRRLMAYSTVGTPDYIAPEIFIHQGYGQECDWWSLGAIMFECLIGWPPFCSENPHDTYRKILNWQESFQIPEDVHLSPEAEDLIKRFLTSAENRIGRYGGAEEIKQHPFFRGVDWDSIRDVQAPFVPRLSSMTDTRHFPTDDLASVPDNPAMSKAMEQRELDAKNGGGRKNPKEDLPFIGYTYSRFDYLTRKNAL

For this assay, the target named is Ace2S-HA (short form of C. albicans Ace2, translation from methionine-55, under the MET3 promoter) (Candida albicans) (UniProt Q59RR0). Kind of assay: co-IP; anti-HA μMACS precipitation of HA-tagged Ace2 forms from yeast cell extracts; lysis buffer HEPES 50 mM, 70 mM potassium acetate, 5 mM magnesium acetate, 1% Triton X-100, 10% glycerol; blots with anti-HA and anti-myc.

These are yes or no findings as the source states them, for the method shown. Binding seen in cells or lysates may run through a third protein. Some binding calls cover weakened binding; strength is not graded here.

Regarding “Cbk1-myc (C. albicans NDR kinase Cbk1 tagged with c-myc at the C-terminus) (from UniProt Q5AP53 1-732) (enzyme)”, the binding entry is given as “binds”.
